Assay results from article PMC3489836.
No constants are given. Whether binding was seen depends on the method and setting. Binding can be weak; no strength is given.

The chains behind the UniProt entries cited, without tags or fusion partners.
UniProt Q94BT6: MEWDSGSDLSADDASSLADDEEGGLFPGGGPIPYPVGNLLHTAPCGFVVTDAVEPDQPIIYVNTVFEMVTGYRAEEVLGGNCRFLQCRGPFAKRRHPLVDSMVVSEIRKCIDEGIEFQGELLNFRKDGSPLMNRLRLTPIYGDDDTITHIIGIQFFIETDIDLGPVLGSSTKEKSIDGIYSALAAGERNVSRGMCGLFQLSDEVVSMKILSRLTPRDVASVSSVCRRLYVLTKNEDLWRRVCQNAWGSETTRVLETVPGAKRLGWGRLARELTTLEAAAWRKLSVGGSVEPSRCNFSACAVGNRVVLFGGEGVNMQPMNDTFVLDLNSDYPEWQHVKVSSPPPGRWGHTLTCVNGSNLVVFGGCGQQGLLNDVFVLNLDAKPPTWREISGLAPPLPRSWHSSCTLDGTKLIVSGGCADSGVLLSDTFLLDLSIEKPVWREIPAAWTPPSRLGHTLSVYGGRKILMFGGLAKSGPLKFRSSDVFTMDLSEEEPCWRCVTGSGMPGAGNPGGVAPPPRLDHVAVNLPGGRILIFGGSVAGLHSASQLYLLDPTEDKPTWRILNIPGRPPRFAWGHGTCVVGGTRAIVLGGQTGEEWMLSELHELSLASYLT

Assays:
[1] = target: NaZTL (Nicotiana attenuata ZEITLUPE) (Nicotiana attenuata) (UniProt J9PVN1); assay: two-hybrid; Matchmaker system (Clontech), yeast AH109; ZTL fused to GAL4 DNA binding domain (bait, pGBKT7), TOC1 fused to GAL4 activation domain (prey, pGADT7); growth on medium without Leu, Trp, His, Ade and beta-galactosidase activity
[2] = target: AtZTL (Arabidopsis thaliana ZEITLUPE) (Arabidopsis thaliana) (UniProt Q94BT6); assay: as above

binding [1]: binds
binding [2]: binds
Substance: NaTOC1 (Nicotiana attenuata TIMING OF CAB EXPRESSION 1/PSEUDO-RESPONSE REGULATOR 1) (from UniProt J9PWT0)
